Data: the supplement of paper PMC4604168 (melanoma cell lines)
The other results are listed elsewhere or left out. Single values are uncertain, as repeats are few or missing.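 Cells were imaged in 1,536-well plates, and nuclei stained with an antibody against cleaved PARP were counted against all DNA-stained nuclei to give the apoptosis fraction. Screening doses were chosen to leave most cells alive, and resting and induced cleaved-PARP levels differ strongly between cell lines.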

Test system: WM115
Experiment: cleaved PARP positive nuclei fraction relative to DMSO control; melanoma cells; higher = more apoptosis
Conditions: library dose: low library concentration; 72 h

Row | SMILES | cleaved PARP positive nuclei fraction [%]
1 | Cn1nnc2c(C(N)=O)ncn2c1=O [temozolomide] + C/C(O)=C(\C#N)C(=O)Nc1cc(Br)ccc1Br [LFM-A13] (first compound 2 µM, partner dose 2 µM) | 47.4
2 | CNC(=O)c1cc(Oc2ccc(NC(=O)Nc3ccc(Cl)c(C(F)(F)F)c3)cc2)ccn1 [sorafenib] + Cc1cc(SCc2sc(-c3ccc(C(F)(F)F)c(F)c3)nc2C)ccc1OCC(=O)O [GW0742] (first compound 0.4 µM, partner dose 2 µM) | 118
3 | Cn1cnc2c(F)c(Nc3ccc(Br)cc3Cl)c(C(=O)NOCCO)cc21 [selumetinib] + C[C@]12O[C@H](C[C@]1(O)CO)n1c3ccccc3c3c4c(c5c6ccccc6n2c5c31)CNC4=O [Lestaurtinib] (first compound 0.015 µM, partner dose 0.004 µM) | 120
4 | CS(=O)(=O)CCNCc1ccc(-c2ccc3ncnc(Nc4ccc(OCc5cccc(F)c5)c(Cl)c4)c3c2)o1 [lapatinib] + O=C(Oc1ccc([N+](=O)[O-])cc1)N1CCC(C(O)(c2ccc3c(c2)OCO3)c2ccc3c(c2)OCO3)CC1 [JZL184] (first compound 0.8 µM, partner dose 1 µM) | 47
5 | Nc1ccn([C@@H]2O[C@H](CO)[C@@H](O)C2(F)F)c(=O)n1 [gemcitabine] + Cc1cc(SCc2sc(-c3ccc(C(F)(F)F)c(F)c3)nc2C)ccc1OCC(=O)O [GW0742] (first compound 0.0004 µM, partner dose 2 µM) | 170
